What all share (assay): co-IP
Test [1] has as its target Flag/HA-ZC3H7A (Zinc Finger CCCH-Type Containing 7A) (human) (UniProt Q8IWR0).
In test [2] the target is T1, Flag/HA-ZC3H7B (Zinc Finger CCCH-Type Containing 7B) (human) (UniProt Q9UGR2).
T1 sequence: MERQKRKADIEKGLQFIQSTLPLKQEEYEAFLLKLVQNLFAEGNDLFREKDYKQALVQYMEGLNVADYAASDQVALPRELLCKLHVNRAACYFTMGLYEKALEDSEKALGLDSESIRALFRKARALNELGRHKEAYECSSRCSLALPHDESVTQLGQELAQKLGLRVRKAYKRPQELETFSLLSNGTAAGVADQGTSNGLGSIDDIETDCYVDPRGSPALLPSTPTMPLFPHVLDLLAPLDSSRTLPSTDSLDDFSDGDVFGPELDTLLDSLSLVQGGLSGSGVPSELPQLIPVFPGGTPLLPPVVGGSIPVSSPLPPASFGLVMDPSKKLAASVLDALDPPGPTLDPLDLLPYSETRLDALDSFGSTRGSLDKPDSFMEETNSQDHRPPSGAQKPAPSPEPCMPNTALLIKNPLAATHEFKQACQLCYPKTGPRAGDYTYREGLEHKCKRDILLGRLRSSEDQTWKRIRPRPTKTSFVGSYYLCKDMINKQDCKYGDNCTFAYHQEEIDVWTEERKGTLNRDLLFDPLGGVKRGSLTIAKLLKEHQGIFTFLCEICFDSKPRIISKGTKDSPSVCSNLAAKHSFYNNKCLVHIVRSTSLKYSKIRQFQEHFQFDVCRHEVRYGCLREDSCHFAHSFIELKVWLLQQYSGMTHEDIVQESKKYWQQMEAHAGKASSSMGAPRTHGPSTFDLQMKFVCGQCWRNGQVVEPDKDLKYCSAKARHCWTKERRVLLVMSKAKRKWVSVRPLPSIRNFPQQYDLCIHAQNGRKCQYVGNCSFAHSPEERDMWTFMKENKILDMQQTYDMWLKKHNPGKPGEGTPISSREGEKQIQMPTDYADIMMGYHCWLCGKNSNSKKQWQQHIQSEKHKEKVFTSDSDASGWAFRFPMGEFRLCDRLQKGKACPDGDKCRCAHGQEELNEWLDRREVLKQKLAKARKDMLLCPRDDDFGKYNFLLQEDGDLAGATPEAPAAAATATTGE

Sequences of proteins named here, by UniProt entry; tags and fusion partners are left off.
UniProt Q8IWR0: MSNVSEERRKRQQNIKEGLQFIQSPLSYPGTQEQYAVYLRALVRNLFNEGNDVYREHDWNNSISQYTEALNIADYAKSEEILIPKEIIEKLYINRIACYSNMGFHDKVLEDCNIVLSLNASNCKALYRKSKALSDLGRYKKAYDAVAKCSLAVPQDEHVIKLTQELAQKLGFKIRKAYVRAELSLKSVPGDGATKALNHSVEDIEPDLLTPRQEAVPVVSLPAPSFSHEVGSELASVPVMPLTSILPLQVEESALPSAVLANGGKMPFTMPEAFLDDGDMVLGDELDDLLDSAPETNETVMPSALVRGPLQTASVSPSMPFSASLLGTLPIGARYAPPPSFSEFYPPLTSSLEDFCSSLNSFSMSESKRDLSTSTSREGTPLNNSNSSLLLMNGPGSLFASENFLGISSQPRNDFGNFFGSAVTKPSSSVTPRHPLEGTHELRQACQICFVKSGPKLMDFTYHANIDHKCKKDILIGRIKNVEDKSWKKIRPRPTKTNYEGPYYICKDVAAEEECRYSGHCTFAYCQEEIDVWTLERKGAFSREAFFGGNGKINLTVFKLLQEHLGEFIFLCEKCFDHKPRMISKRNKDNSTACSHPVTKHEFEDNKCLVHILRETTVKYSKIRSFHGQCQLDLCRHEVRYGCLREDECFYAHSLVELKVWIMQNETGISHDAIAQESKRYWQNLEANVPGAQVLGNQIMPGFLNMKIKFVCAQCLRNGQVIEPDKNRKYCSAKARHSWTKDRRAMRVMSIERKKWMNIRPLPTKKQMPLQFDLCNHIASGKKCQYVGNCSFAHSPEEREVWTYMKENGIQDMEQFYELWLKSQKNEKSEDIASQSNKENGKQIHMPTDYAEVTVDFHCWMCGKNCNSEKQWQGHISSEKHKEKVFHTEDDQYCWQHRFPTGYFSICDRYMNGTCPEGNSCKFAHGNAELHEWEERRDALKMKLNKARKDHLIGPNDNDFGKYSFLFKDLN
UniProt O60573: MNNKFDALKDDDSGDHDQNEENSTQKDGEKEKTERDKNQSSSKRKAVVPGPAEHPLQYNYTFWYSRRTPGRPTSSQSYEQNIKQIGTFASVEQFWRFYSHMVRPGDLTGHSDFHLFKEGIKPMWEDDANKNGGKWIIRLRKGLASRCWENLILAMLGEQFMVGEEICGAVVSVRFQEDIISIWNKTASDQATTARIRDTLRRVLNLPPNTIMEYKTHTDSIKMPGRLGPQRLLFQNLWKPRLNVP
UniProt A5YKK6: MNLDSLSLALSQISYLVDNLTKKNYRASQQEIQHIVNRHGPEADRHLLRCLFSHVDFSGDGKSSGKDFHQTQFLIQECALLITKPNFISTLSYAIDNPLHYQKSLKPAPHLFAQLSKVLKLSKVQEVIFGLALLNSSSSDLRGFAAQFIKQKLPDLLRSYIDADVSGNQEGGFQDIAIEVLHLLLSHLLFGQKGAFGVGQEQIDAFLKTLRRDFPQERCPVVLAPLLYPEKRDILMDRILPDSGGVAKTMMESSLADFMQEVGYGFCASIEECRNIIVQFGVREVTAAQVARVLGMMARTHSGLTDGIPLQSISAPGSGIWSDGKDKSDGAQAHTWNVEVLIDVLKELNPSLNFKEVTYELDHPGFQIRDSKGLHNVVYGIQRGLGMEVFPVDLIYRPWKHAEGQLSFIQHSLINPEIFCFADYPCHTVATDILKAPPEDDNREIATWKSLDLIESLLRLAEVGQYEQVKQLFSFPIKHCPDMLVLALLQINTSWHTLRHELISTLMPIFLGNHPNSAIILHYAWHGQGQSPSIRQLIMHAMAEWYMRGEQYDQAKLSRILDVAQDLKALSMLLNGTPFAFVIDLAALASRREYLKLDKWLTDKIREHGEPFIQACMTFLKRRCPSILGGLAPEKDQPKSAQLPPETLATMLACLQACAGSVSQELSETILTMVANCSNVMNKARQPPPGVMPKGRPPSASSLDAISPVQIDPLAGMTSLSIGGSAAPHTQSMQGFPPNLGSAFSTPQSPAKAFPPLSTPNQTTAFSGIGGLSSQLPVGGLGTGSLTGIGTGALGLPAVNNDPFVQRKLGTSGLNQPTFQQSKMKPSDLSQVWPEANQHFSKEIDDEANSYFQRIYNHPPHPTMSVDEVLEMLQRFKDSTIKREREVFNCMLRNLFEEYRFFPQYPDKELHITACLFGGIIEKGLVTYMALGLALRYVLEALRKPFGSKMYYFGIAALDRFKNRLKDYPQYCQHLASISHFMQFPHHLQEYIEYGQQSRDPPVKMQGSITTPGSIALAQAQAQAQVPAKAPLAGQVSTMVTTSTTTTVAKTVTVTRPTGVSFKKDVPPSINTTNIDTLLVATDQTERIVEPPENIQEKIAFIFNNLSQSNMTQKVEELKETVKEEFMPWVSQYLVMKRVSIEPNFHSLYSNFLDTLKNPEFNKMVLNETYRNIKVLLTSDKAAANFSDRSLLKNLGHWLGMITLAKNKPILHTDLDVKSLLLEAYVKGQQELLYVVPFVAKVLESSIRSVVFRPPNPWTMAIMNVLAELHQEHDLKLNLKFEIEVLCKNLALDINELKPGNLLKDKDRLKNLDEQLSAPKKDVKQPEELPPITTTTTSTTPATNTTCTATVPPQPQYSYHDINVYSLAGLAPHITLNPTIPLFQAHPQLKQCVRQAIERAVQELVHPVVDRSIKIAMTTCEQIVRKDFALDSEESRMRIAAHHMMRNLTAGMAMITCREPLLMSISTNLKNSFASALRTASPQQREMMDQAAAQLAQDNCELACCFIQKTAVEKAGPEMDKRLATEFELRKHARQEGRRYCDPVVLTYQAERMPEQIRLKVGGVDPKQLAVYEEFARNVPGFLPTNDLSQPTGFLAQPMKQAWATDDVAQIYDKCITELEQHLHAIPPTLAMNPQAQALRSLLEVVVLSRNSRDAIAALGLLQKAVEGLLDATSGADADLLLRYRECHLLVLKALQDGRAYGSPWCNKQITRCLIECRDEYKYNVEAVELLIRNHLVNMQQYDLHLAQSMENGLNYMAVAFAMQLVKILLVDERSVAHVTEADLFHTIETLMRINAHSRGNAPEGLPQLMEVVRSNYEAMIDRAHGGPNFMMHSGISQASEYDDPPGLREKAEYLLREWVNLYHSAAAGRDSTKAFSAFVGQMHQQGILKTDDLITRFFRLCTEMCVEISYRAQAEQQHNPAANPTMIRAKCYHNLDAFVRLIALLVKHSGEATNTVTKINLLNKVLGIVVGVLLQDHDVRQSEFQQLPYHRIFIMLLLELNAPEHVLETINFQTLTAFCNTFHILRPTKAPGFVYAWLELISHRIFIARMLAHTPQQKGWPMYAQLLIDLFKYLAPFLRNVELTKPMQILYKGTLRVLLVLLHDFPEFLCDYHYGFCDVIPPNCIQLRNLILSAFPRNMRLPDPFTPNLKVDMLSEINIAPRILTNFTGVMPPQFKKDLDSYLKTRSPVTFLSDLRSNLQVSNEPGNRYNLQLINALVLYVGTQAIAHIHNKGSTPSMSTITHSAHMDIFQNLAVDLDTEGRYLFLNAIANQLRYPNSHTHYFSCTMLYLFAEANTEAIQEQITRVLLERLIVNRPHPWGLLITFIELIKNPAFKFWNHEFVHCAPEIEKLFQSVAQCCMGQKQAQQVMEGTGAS
UniProt O75175: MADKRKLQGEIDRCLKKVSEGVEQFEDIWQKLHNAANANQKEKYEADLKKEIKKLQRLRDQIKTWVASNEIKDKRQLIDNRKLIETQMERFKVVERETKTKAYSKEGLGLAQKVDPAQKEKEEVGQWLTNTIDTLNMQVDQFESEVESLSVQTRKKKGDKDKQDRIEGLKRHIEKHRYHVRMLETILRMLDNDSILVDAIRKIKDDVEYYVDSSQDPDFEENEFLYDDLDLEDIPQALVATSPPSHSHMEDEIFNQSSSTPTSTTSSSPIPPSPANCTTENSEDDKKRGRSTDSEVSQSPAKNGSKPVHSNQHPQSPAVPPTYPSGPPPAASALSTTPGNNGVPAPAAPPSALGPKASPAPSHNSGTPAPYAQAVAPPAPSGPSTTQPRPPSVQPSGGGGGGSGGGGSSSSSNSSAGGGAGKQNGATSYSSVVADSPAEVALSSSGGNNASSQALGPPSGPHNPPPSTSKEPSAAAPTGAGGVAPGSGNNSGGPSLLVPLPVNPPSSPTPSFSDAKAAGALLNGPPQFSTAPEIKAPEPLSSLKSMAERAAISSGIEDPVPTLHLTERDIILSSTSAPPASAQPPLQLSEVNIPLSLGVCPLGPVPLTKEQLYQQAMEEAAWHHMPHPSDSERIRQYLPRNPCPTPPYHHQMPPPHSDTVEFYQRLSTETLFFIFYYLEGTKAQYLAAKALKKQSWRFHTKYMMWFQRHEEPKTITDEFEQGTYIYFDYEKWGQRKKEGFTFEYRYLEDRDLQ
UniProt Q9UIV1: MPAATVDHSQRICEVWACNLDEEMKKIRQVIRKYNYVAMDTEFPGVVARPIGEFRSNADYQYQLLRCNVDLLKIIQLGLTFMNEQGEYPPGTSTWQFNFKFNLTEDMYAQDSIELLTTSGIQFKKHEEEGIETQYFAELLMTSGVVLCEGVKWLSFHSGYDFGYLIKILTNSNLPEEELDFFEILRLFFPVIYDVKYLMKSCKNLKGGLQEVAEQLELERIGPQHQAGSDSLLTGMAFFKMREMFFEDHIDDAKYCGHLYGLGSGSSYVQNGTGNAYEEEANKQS

Test [3] has as its target Flag/HA-ZC3H7A (Zinc Finger CCCH-Type Containing 7A) (human) (UniProt Q8IWR0). The source holds these as a separate data set.
In test [4] the target is T1, Flag/HA-ZC3H7B (Zinc Finger CCCH-Type Containing 7B) (human). The source holds these as a separate data set.

Where two headings read alike, the source gives them in different places. These are yes or no findings as the source states them, for the method shown. In cells and extracts the contact can be indirect. Some entries that bind do so weakly or less than the wild type. For some of these results: Where a sequence is shown, tags or fusion partners need not be part of it.

With “4EHP (eIF4E Homologous Protein) (from UniProt O60573 1-245)”, the binding result in test [1] and in test [2] was “binds” in each case.
For the molecule CNOT1 (from UniProt A5YKK6 1-2376), the binding result in test [1] and in test [2] was “binds” in each case.
For the molecule CNOT3 (from UniProt O75175 1-753), the binding result in test [1] and in test [2] was “binds” in each case.
CNOT7 (from UniProt Q9UIV1 1-285): the binding result in test [1] and in test [2] was “binds” in each case.

B1: Grb10-interacting GYF protein 2 (GIGYF2) (protein, UniProt Q6Y7W6 1-1299)
chain: MAAETQTLNFGPEWLRALSSGGSITSPPLSPALPKYKLADYRYGREEMLALFLKDNKIPSDLLDKEFLPILQEEPLPPLALVPFTEEEQRNFSMSVNSAAVLRLTGRGGGGTVVGAPRGRSSSRGRGRGRGECGFYQRSFDEVEGVFGRGGGREMHRSQSWEERGDRRFEKPGRKDVGRPNFEEGGPTSVGRKHEFIRSESENWRIFREEQNGEDEDGGWRLAGSRRDGERWRPHSPDGPRSAGWREHMERRRRFEFDFRDRDDERGYRRVRSGSGSIDDDRDSLPEWCLEDAEEEMGTFDSSGAFLSLKKVQKEPIPEEQEMDFRPVDEGEECSDSEGSHNEEAKEPDKTNKKEGEKTDRVGVEASEETPQTSSSSARPGTPSDHQSQEASQFERKDEPKTEQTEKAEEETRMENSLPAKVPSRGDEMVADVQQPLSQIPSDTASPLLILPPPVPNPSPTLRPVETPVVGAPGMGSVSTEPDDEEGLKHLEQQAEKMVAYLQDSALDDERLASKLQEHRAKGVSIPLMHEAMQKWYYKDPQGEIQGPFNNQEMAEWFQAGYFTMSLLVKRACDESFQPLGDIMKMWGRVPFSPGPAPPPHMGELDQERLTRQQELTALYQMQHLQYQQFLIQQQYAQVLAQQQKAALSSQQQQQLALLLQQFQTLKMRISDQNIIPSVTRSVSVPDTGSIWELQPTASQPTVWEGGSVWDLPLDTTTPGPALEQLQQLEKAKAAKLEQERREAEMRAKREEEERKRQEELRRQQEEILRRQQEEERKRREEEELARRKQEEALRRQREQEIALRRQREEEERQQQEEALRRLEERRREEEERRKQEELLRKQEEEAAKWAREEEEAQRRLEENRLRMEEEAARLRHEEEERKRKELEVQRQKELMRQRQQQQEALRRLQQQQQQQQLAQMKLPSSSTWGQQSNTTACQSQATLSLAEIQKLEEERERQLREEQRRQQRELMKALQQQQQQQQQKLSGWGNVSKPSGTTKSLLEIQQEEARQMQKQQQQQQQHQQPNRARNNTHSNLHTSIGNSVWGSINTGPPNQWASDLVSSIWSNADTKNSNMGFWDDAVKEVGPRNSTNKNKNNASLSKSVGVSNRQNKKVEEEEKLLKLFQGVNKAQDGFTQWCEQMLHALNTANNLDVPTFVSFLKEVESPYEVHDYIRAYLGDTSEAKEFAKQFLERRAKQKANQQRQQQQLPQQQQQQPPQQPPQQPQQQDSVWGMNHSTLHSVFQTNQSNNQQSNFEAVQSGKKKKKQKMVRADPSLLGFSVNASSERLNMGEIETLDDY
For B1, the binding entry in test [3] and in test [4] was “binds” throughout.

Values taken from doi:10.1101/2025.04.21.649502.
